According to the supplement of paper PMC9226226:
“And” between values parts separate entries of the source, which are not always exact repeats. Equal values may be shown once. ± gives the standard deviation of the averaged measurements. The list shows a part of the results. Some well-known active drugs show little effect in this data set, so a weak value is uncertain.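 The cells are human mesenchymal stem cells that lack the Werner syndrome gene and age prematurely. Growth was tracked by automated live-cell imaging in three biological repeats, and the twenty drugs that most raised growth over vehicle were taken forward, with no fixed cutoff stated.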

Tested on: Werner syndrome hMSCs (WRN-/-)
Test: relative cell density (fold change vs vehicle control); higher = more proliferation (geroprotective)
Settings: concentration (umol/L): 1, 6 days

Compound | relative cell density (vehicle: DMSO) | relative cell density (vehicle: Water)
NCCNc1ccc(NCCN)c2c1C(=O)c1ccncc1C2=O | 0.913 | 
Cn1c(=O)c2c(ncn2CC(O)CO)n(C)c1=O (stereo not drawn) | 1.13 | 
CCCc1nc(C(C)(C)O)c(C(=O)OCc2oc(=O)oc2C)n1Cc1ccc(-c2ccccc2-c2nnn[nH]2)cc1 | 1 | 
NC(=O)c1cccnc1 | 1.48 | 
Nc1nccs1 | 0.824 | 
S=c1nc[nH]c2nc[nH]c12 | 1.03 | 
CCCCCCCCCCCCCCCC[N+](C)(C)C | 0.449 | 
C=CCN1CCCC1CNC(=O)c1cc2nn[nH]c2cc1OC (stereo not drawn) | 0.877 | 
NC(=O)[C@@H](CCC(F)(F)F)N(Cc1ccc(-c2ncon2)cc1F)S(=O)(=O)c1ccc(Cl)cc1 | 0.96 | 
CC1=C(C(=O)O)N2C(=O)[C@@H](NC(=O)[C@H](N)c3ccc(O)cc3)[C@H]2SC1 | 0.822 | 
CC(C)(Oc1ccc(C2CC2(Cl)Cl)cc1)C(=O)O (stereo not drawn) | 1.24 | 
CCN(CC)C(=O)N1CCN(C)CC1 | 1.41 | 
O=C(O)c1cc(O)c(O)c(O)c1 | 1.62 | 
O=P(O)(O)C(O)(Cc1cccnc1)P(=O)(O)O |  | 0.632
CCN(CCCc1ccccc1)CCCc1ccccc1 | 1.63 | 
COc1cc2c(cc1OC)CN(CCc1ccc(NC(=O)c3cccc4c(=O)c5cccc(OC)c5[nH]c34)cc1)CC2 | 0.977 | 
CC[C@]1(O)C[C@@H]2CN(CCc3c([nH]c4ccccc34)[C@@](C(=O)OC)(c3cc4c(cc3OC)N(C)[C@H]3[C@@](O)(C(=O)OC)[C@H](OC(C)=O)[C@]5(CC)C=CCN6CC[C@]43[C@@H]65)C2)C1 | 1.13 | 
CCc1cc(/C(C)=N/OCc2ccc(C3CCCCC3)c(C(F)(F)F)c2)ccc1CN1CC(C(=O)O)C1 | 0.887 | 
Clc1ccc(COC(Cn2ccnc2)c2ccc(Cl)cc2Cl)cc1 (stereo not drawn) | 1 | 
NC(=O)NO | 1.13 | 
Clc1ccccc1C(c1ccccc1)(c1ccccc1)n1ccnc1 | 1.04 | 
O=S(=O)(O)CCSSCCS(=O)(=O)O | 1.28 | 
CO[C@H]1C(=O)[C@]2(C)[C@@H](OC)C[C@H]3OC[C@@]3(OC(C)=O)[C@H]2[C@H](OC(=O)c2ccccc2)[C@]2(O)C[C@H](OC(=O)[C@H](O)[C@@H](NC(=O)OC(C)(C)C)c3ccccc3)C(C)=C1C2(C)C | 0.446 | 
Nc1nc(=O)c2c([nH]1)NCC(CNc1ccc(C(=O)N[C@@H](CCC(=O)O)C(=O)O)cc1)N2C=O (stereo partly drawn) |  | 1.12

Compound | relative cell density (vehicle: DMSO) | relative cell density (vehicle: Water)
Oc1c(Cl)cc(Cl)cc1Sc1cc(Cl)cc(Cl)c1O | 1.36 | 
NC[C@H]1CC[C@H](C(=O)O)CC1 |  | 1.05
CCCCOc1ccc(CC(=O)NO)cc1 | 1.09 | 
CC(=O)OC(C)C[N+](C)(C)C (stereo not drawn) | 1.02 | 
Cc1ccc(O)c([C@H](CCN(C(C)C)C(C)C)c2ccccc2)c1 | 1.08 | 
O=C(O)c1cc(=O)c2c(OCC(O)COc3cccc4oc(C(=O)O)cc(=O)c34)cccc2o1 |  | 1.03
O[C@@H]1CO[C@H]2[C@@H]1OC[C@@H]2O | 1.07 | 
CCOc1ccc(Cc2cc([C@@H]3O[C@H](CO)[C@@H](O)[C@H](O)[C@H]3O)ccc2Cl)cc1 | 1.25 | 
CN(C)CCN1C(=O)c2cccc3cc(N)cc(c23)C1=O | 0.338 | 
CN(C)CCC(c1ccccc1)c1ccccn1 (stereo not drawn) | 1.06 | 
Cc1c(O)cccc1C(=O)N[C@@H](CSc1ccccc1)[C@H](O)CN1C[C@H]2CCCC[C@H]2C[C@H]1C(=O)NC(C)(C)C | 1.22 | 
CCOC(=O)c1ccc(O)cc1 | 0.911 | 
CC(=O)O[C@H]1Cc2ccccc2N(C(N)=O)c2ccccc21 | 1.03 | 
COC(=O)Nc1nc2cc(C(=O)c3ccc(F)cc3)ccc2[nH]1 |  | 0.191
Cc1ccc(-n2[nH]c(C)c(N=Nc3cccc(-c4cccc(C(=O)O)c4)c3O)c2=O)cc1C | 1.17 | 
Cc1c(OCC(F)(F)F)ccnc1C[S+]([O-])c1nc2ccccc2[nH]1 (stereo not drawn) | 1 | 
CC(C)(C)NCC(O)c1ccc(O)c(CO)c1 (stereo not drawn) |  | 1.07
Cc1onc(-c2ccccc2)c1C(=O)N[C@@H]1C(=O)N2[C@@H]1SC(C)(C)[C@@H]2C(=O)O |  | 0.992
CN(C)[C@@H](CCOc1cccc2ccccc12)c1ccccc1 | 1.38 | 
CCCC(CCC)C(=O)O | 0.939 and 1.16 and 1.09 | 
CN(C)CCCC1(c2ccc(F)cc2)OCc2cc(C#N)ccc21 (stereo not drawn) | 0.902 | 
CCCCCCCCCC(=O)NC1C(Oc2c3cc4cc2Oc2ccc(cc2Cl)C(OC2OC(CO)C(O)C(O)C2NC(C)=O)C2NC(=O)C(NC(=O)C4NC(=O)C4NC(=O)C(Cc5ccc(c(Cl)c5)O3)NC(=O)C(N)c3ccc(O)c(c3)Oc3cc(O)cc4c3)c3ccc(O)c(c3)-c3c(OC4OC(CO)C(O)C(O)C4O)cc(O)cc3C(C(=O)O)NC2=O)OC(CO)C(O)C1O (stereo not drawn) |  | 1
CC[C@H](Nc1ncnc2[nH]cnc12)c1nc2cccc(F)c2c(=O)n1-c1ccccc1 | 1.21 | 
CC(=O)NC1C(O)OC(COS(=O)(=O)O)C(OC2OC(C(=O)O)C(OC3OC(CO)C(OC4OC(C(=O)O)C(O)C(O)C4OS(=O)(=O)O)C(OS(=O)(=O)O)C3NS(=O)(=O)O)C(O)C2OS(=O)(=O)O)C1O (stereo not drawn) |  | 1.18

Compound | relative cell density (vehicle: DMSO) | relative cell density (vehicle: Water)
O[C@@H](COc1cccc2ncccc12)CN1CCN(C2c3ccccc3[C@@H]3[C@H](c4ccccc42)C3(F)F)CC1 (stereo partly drawn) | 1.49 | 
NS(=O)(=O)NCCNc1nonc1/C(=N/O)Nc1ccc(F)c(Br)c1 | 1.09 | 
CCC(=O)NCC[C@@H]1CCc2ccc3c(c21)CCO3 | 1.1 | 
COC1=CC(=O)C[C@@H](C)[C@]12Oc1c(Cl)c(OC)cc(OC)c1C2=O | 1.04 | 
COc1cc(N)c(Cl)cc1C(=O)NC1CCN(CCCOc2ccc(F)cc2)CC1OC (stereo not drawn) | 1.11 | 
CN(C)CCC(c1ccc(Cl)cc1)c1ccccn1 (stereo not drawn) | 1.36 | 
OCC(O)CN1CCN(c2ccccc2)CC1 (stereo not drawn) | 0.875 | 
CCn1cc(C(=O)O)c(=O)c2cc(F)c(N3CCNCC3)cc21 |  | 0.804
CC(C)C[C@H](NC(=O)CNC(=O)c1cc(Cl)ccc1Cl)B1OC(=O)CC(CC(=O)O)(C(=O)O)O1 (stereo partly drawn) | 0.262 | 
CCOC(=O)C1=C(C)NC(C)=C(C(=O)OC)C1c1cccc([N+](=O)[O-])c1 (stereo not drawn) | 1.26 | 
CNC(=O)c1ccccc1Sc1ccc2c(/C=C/c3ccccn3)n[nH]c2c1 | 0.588 | 
CC(CN1c2ccccc2Sc2ccccc21)N(C)C (stereo not drawn) | 1.22 | 
O=C(c1ccc(OCCN2CCCCC2)cc1)c1c(-c2ccc(O)cc2)sc2cc(O)ccc12 | 1.11 | 
CN1CCN(c2ccc(C(=O)Nc3n[nH]c4ccc(Cc5cc(F)cc(F)c5)cc34)c(NC3CCOCC3)c2)CC1 | 1 | 
CCN1CCCC1CNC(=O)c1cc(S(=O)(=O)CC)c(N)cc1OC (stereo not drawn) | 1.04 | 
Nc1nc(N)nc(-c2cc(Cl)ccc2Cl)n1 |  | 1.06
S=P(N1CC1)(N1CC1)N1CC1 | 0.812 | 
C[C@@H](O)[C@H]1C(=O)N2C(C(=O)OCOC(=O)C(C)(C)C)=C(SC3CN(C4=NCCS4)C3)[C@H](C)[C@H]12 | 1.21 | 
C1CNCCNCCNCCN1 | 1.07 | 
CCCCOc1ccc(OCCCN2CCOCC2)cc1 | 1.05 | 
CC1CCc2cc(F)cc3c(=O)c(C(=O)O)cn1c23 (stereo not drawn) | 0.958 | 
CC(C)c1nc(CN(C)C(=O)N[C@H](C(=O)N[C@@H](Cc2ccccc2)C[C@H](O)[C@H](Cc2ccccc2)NC(=O)OCc2cncs2)C(C)C)cs1 | 1.11 | 
COc1ccccc1OCCNCC(O)COc1cccc2[nH]c3ccccc3c12 (stereo not drawn) | 1.21 | 
CC(C)[C@H]1CC[C@H](C(=O)N[C@H](Cc2ccccc2)C(=O)O)CC1 | 0.948 | 

Rewritten as a markdown table: three of the compounds above

| Compound | relative cell density (vehicle: DMSO) | relative cell density (vehicle: Water) |
| --- | --- | --- |
| O[C@@H](COc1cccc2ncccc12)CN1CCN(C2c3ccccc3[C@@H]3[C@H](c4ccccc42)C3(F)F)CC1 (stereo partly drawn) | 1.49 |  |
| CCC(=O)NCC[C@@H]1CCc2ccc3c(c21)CCO3 | 1.1 |  |
| CC1CCc2cc(F)cc3c(=O)c(C(=O)O)cn1c23 (stereo not drawn) | 0.958 |  |

(continued)

Compound | relative cell density (vehicle: DMSO) | relative cell density (vehicle: Water)
COc1ccc(-n2nc(C(N)=O)c3c2C(=O)N(c2ccc(N4CCCCC4=O)cc2)CC3)cc1 | 1.17 | 
N=C(N)c1ccc(OCCCCCOc2ccc(C(=N)N)cc2)cc1 | 0.877 | 
CCCCC(=O)O[C@H]1CC[C@H]2[C@@H]3CCc4cc(O)ccc4[C@H]3CC[C@]12C | 1.14 | 
Fc1ccc(C(c2ccc(F)cc2)N2CCN(C/C=C/c3ccccc3)CC2)cc1 | 1.23 | 
CN[C@@H]1[C@H](O[C@H]2[C@H](O[C@H]3[C@H](O)[C@@H](O)[C@H](N=C(N)N)[C@@H](O)[C@@H]3N=C(N)N)O[C@@H](C)[C@]2(O)C=O)O[C@@H](CO)[C@H](O)[C@H]1O |  | 0.912
Nc1nc(Cl)nc2c1ncn2[C@H]1C[C@H](O)[C@@H](CO)O1 | 1.67 | 
Cn1nnc(-c2ccc(-c3ccc(N4C[C@H](COP(=O)(O)O)OC4=O)cc3F)cn2)n1 | 1.1 | 
CCC(=O)O[C@@H](O[P@](=O)(CCCCc1ccccc1)CC(=O)N1C[C@H](C2CCCCC2)C[C@H]1C(=O)O)C(C)C |  | 0.965 ± 0.084
CC1(C)S[C@@H]2[C@H](NC(=O)[C@H](N)c3ccc(O)cc3)C(=O)N2[C@H]1C(=O)O | 1.51 and 1.19 | 
OCCOCCN1CCN(C2=Nc3ccccc3Sc3ccccc32)CC1 | 0.964 | 
CN(N=O)C(=O)NC1C(O)OC(CO)C(O)C1O (stereo not drawn) | 1.09 | 
Oc1ncnc2[nH]ncc12 | 1.11 | 
C=C[C@]1(C)C[C@@H](OC(=O)CS[C@@H]2C[C@H]3CC[C@@H](C2)N3C)[C@]2(C)[C@H](C)CC[C@]3(CCC(=O)[C@H]32)[C@@H](C)[C@@H]1O | 1.16 | 
C[C@]12CCC(=O)C=C1CC[C@@H]1[C@@H]2[C@@H](O)C[C@@]2(C)[C@H]1CC[C@]2(O)C(=O)CO | 0.808 | 
CCOC(=O)C1=C[C@@H](OC(CC)CC)[C@H](NC(C)=O)[C@@H](N)C1 |  | 1.25
Cc1onc(-c2ccccc2)c1-c1ccc(S(N)(=O)=O)cc1 | 1.16 | 
COc1ccc(CCN(C)CCCC(C#N)(c2ccc(OC)c(OC)c2)C(C)C)cc1OC (stereo not drawn) | 0.958 | 
CCCc1cc(=O)[nH]c(=S)[nH]1 | 0.995 | 
CO/N=C(\C(=O)N[C@@H]1C(=O)N2C(C(=O)OCOC(=O)C(C)(C)C)=C(/C=C\c3scnc3C)CS[C@H]12)c1csc(N)n1 | 1.13 | 
CC(C)(C(=O)O)c1ccc(C(O)CCCN2CCC(C(O)(c3ccccc3)c3ccccc3)CC2)cc1 (stereo not drawn) | 1.01 | 
CC(=O)O[C@]1(C(C)=O)CC[C@H]2[C@@H]3C[C@H](C)C4=CC(=O)C=C[C@]4(C)[C@@]3(F)[C@@H](O)C[C@@]21C | 1.16 | 
